Test results taken from the supplement of paper PMC10849652.
The other results are listed elsewhere or left out. Residues, ends and D or L forms follow the SMILES beside them. *: point of attachment. Cbz = O=C(OCc1ccccc1)*

By UniProt entry, the sequences of proteins in these tests, tags left out. Where a name states a change or a piece, a line headed by the entry shows the natural chain unless it says otherwise.
UniProt Q9Y421: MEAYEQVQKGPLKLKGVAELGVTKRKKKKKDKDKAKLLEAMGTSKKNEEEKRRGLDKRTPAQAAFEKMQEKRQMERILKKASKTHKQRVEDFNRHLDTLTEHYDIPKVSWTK
UniProt Q9Y285: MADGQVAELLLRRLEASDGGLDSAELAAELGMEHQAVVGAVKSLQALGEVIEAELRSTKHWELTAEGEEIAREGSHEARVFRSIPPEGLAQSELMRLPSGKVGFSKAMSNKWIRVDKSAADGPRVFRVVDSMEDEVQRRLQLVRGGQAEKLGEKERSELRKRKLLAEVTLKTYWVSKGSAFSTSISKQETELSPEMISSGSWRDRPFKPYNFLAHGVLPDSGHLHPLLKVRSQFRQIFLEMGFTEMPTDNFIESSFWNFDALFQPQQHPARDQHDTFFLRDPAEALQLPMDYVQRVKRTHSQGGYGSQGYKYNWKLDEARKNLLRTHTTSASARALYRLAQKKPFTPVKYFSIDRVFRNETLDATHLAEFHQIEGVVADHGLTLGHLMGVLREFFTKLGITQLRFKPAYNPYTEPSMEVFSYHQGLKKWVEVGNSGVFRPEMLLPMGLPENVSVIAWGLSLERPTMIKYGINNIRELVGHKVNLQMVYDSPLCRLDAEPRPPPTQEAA
UniProt Q5T1M5: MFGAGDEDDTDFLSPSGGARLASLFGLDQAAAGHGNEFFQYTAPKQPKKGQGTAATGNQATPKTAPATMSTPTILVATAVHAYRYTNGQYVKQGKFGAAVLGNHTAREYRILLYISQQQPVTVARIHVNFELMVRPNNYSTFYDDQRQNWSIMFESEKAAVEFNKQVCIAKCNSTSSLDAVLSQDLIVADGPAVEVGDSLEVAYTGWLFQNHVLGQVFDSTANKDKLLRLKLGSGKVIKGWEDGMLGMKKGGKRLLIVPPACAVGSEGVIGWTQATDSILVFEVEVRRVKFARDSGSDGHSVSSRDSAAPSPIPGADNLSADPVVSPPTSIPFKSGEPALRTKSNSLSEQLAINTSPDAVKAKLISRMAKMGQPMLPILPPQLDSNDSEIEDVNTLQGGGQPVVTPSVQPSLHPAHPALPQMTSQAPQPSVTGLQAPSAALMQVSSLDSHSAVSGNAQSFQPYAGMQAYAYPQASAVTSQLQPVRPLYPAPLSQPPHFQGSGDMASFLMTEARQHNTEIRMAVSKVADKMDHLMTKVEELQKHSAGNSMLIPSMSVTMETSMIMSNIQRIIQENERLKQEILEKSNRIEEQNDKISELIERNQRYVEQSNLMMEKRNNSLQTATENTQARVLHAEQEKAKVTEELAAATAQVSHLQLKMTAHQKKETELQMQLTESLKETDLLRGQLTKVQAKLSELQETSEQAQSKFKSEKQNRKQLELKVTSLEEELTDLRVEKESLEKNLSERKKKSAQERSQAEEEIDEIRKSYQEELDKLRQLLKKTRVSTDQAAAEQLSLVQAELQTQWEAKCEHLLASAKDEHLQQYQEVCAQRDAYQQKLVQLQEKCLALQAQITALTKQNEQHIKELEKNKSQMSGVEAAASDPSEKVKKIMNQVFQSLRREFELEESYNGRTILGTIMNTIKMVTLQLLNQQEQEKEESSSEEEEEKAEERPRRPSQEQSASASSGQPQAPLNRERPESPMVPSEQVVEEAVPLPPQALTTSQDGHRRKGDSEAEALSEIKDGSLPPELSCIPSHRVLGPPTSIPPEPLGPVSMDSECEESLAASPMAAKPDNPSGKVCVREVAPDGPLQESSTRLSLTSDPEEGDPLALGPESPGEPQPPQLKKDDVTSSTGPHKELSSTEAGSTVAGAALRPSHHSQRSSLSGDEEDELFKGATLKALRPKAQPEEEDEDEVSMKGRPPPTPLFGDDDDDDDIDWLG
UniProt Q14254: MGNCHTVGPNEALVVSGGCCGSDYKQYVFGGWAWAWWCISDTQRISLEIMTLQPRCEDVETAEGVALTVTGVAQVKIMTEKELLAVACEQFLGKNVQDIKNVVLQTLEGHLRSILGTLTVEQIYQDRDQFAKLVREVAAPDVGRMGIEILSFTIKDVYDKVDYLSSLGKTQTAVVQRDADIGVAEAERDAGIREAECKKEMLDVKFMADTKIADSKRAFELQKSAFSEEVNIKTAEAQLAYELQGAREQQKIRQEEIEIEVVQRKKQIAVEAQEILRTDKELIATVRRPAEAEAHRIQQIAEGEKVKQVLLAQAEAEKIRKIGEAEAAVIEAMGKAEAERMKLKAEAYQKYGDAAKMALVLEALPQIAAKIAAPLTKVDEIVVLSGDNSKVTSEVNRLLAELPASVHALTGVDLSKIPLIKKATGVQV
UniProt Q96IG2: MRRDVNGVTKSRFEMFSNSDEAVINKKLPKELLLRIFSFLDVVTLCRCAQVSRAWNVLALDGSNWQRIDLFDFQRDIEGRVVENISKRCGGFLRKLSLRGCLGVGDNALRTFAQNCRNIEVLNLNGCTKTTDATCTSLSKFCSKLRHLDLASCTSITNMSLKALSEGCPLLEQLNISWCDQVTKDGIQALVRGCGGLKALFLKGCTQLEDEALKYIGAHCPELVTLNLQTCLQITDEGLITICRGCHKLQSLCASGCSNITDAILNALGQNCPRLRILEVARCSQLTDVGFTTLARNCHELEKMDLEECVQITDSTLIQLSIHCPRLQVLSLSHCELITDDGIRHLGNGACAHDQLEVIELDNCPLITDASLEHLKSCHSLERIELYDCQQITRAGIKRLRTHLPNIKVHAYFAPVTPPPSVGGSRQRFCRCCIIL
UniProt Q92913: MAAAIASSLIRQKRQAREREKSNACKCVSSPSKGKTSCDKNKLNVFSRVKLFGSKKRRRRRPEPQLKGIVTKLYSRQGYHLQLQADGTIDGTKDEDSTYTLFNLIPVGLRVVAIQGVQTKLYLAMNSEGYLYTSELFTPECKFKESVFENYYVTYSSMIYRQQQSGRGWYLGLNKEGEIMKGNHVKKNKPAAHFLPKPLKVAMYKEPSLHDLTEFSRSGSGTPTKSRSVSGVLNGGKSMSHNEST
UniProt Q9UBU6: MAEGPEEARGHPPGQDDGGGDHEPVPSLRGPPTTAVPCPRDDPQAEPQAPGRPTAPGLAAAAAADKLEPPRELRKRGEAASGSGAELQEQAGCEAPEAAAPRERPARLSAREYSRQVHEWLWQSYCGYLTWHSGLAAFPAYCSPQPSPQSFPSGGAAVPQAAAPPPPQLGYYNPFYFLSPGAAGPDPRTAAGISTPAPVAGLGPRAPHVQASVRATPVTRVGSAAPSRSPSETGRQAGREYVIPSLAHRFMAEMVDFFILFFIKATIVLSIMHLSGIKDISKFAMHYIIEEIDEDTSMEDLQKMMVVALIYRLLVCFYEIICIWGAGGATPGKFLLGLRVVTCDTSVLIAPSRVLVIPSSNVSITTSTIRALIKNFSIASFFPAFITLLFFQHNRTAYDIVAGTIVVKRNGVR
UniProt Q9H479: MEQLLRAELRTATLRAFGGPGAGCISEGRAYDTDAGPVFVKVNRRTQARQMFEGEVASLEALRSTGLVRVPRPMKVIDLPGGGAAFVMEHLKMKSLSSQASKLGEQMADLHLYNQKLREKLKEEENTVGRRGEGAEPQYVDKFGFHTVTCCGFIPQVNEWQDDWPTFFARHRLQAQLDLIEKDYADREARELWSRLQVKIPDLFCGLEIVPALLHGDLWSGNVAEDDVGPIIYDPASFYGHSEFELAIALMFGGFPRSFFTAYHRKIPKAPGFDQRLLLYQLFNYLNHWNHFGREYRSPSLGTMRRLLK
UniProt Q0JRZ9: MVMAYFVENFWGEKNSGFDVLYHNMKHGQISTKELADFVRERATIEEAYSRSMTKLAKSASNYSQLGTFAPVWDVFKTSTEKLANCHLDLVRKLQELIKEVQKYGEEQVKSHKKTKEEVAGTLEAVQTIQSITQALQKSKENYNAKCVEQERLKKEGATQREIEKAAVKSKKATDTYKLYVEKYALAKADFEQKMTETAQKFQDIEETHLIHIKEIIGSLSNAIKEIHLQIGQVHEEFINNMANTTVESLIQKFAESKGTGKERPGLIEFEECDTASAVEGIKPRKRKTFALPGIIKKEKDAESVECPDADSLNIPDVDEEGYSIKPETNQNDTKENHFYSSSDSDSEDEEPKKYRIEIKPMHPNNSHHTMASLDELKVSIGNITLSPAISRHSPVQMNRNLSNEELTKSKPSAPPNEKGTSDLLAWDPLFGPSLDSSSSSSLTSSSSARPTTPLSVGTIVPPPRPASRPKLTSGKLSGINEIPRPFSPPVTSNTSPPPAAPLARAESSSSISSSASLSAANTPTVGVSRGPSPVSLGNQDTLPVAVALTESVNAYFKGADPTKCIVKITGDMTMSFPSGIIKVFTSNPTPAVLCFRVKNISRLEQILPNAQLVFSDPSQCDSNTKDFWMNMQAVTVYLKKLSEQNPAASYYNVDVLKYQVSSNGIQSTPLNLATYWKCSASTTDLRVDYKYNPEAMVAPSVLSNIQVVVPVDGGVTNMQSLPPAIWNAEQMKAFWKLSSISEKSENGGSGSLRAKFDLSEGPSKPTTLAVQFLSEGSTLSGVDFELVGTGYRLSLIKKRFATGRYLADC
UniProt Q14318: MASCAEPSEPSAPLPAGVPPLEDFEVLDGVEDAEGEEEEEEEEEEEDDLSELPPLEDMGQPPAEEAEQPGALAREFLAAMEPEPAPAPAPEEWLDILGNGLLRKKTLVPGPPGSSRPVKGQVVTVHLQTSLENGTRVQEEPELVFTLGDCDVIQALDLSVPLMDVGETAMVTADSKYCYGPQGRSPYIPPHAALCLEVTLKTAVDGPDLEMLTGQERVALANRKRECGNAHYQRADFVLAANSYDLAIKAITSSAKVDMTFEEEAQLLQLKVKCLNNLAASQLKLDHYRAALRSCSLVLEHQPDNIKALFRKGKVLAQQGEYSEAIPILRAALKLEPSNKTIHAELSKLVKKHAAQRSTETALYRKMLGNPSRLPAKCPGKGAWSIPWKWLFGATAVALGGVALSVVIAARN
UniProt Q92520: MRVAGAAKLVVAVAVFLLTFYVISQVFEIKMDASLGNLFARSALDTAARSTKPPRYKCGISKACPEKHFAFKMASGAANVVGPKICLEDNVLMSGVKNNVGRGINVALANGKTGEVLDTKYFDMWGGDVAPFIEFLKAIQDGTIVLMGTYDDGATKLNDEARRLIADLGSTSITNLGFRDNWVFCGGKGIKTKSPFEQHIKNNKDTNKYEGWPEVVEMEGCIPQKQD
UniProt O95684: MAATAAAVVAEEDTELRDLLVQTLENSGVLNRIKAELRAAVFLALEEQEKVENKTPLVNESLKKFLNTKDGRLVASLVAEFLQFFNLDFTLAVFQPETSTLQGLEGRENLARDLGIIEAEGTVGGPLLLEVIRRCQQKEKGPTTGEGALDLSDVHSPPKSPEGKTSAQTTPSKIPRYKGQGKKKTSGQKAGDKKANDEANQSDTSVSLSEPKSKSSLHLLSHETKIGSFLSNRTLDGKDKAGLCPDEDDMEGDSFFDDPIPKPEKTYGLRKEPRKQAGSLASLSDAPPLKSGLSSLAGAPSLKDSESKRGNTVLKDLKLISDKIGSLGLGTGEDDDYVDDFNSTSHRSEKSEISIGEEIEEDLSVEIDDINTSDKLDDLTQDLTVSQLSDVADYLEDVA
UniProt Q9NUQ9: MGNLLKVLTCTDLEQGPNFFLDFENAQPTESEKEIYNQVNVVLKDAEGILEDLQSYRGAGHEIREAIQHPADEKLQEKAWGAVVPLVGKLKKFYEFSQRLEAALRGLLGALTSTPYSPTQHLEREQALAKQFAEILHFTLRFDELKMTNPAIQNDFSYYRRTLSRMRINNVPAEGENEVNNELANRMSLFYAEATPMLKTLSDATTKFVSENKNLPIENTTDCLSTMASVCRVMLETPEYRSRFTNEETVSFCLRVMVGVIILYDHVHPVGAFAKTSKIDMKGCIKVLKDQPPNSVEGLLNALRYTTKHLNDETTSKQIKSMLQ
UniProt P62942, whole entry, looked up: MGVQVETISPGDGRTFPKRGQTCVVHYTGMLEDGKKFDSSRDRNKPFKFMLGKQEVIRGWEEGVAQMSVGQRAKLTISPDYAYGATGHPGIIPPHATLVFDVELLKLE
UniProt P10109: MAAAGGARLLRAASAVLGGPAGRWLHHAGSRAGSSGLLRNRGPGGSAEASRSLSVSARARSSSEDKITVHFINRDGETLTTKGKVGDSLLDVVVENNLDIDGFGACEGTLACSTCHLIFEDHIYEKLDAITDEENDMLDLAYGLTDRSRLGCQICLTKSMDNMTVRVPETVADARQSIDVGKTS

How the values were obtained:
Test in all cases: log2 fold change, soluble protein after heating vs DMSO (PISA); higher = thermal stabilisation; K562 cells, 10 uM, 30 min; active = over 0.2 and 3.5 SD of the protein, either way, in both replicates (recomputed)
erlotinib = compound: C#Cc1cccc(Nc2ncnc3cc(OCCOC)c(OCCOC)cc23)c1 [erlotinib]
Outline: (§1)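 K562 cells (2×10^6 cells/mL) were treated with 10 μM compound for 30 min, and aliquots were heated for 3 min over 48°C-58°C. Pooled aliquots were extracted in PBS with 0.5% NP-40 at 4°C, and the supernatant after 21,000xg for 90 min was measured by TMTpro 16plex LC-MS/MS with channel sums equalised. Reported thermal stability, relative to control samples and from duplicates, is a log2 fold change.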

[1] = compound: C/C(=N\NC(=O)C1=CC(=CC=C1)S(=O)(=O)N2CCOCC2)/C3=C(C=CC(=C3)Cl)O
Outline: as §1

[2] = compound: C1=CC(=C(C=C1Cl)C2=NC3=NC=CN=C3C(=N2)NC4=CC=NC=C4)F
Outline: as §1

[3] = compound: C1=CC(=CC=C1C2=NC3=C(N2)C=C(C=C3)C(=O)N)OC4=CC=C(C=C4)Cl
Outline: as §1

[4] = compound: C1=CC2=C(C=CC(=C2)/C=C\3/C(=O)NC(=NCC4=CC=CS4)S3)N=C1
Outline: as §1

[5] = compound: C1=CC2=NC=CN=C2C=C1/C=C/3\C(=O)NC(=O)S3
Outline: as §1

[6] = compound: C1=CC=C(C=C1)C2=NC(=C(N2)C3=CC=NC=C3)C4=CC(=C(C=C4)Cl)O
Outline: as §1

[7] = compound: C1=CC=C2C(=C1)C3=NNC4=CC=CC(=C43)C2=O
Outline: as §1

[8] = compound: C1CCN(C1)C(=O)NC2=CC=CC(=C2)NC3=NC=C(C(=N3)NCCC4=CN=CN4)Br
Outline: as §1

[9] = compound: C1CN(CCC1(CC2=CC=C(C=C2)Cl)N)C3=NC=NC4=C3C=CN4
Outline: as §1

IRAK-1-4 Inhibitor I = compound: C1COCCN1CCN2C3=CC=CC=C3N=C2NC(=O)C4=CC(=CC=C4)[N+](=O)[O-] [IRAK-1-4 Inhibitor I]
Outline: as §1

ibrutinib = compound: C=CC(=O)N1CCC[C@@H](n2nc(-c3ccc(Oc4ccccc4)cc3)c3c(N)ncnc32)C1 [ibrutinib]
Outline: as §1

[10] = compound: CC(=O)c1cnc2ccc(-c3cc(Cl)c(O)c(Cl)c3)nc2c1N[C@H]1CC[C@H](CN(C)C)CC1
Outline: as §1

ralimetinib = compound: CC(C)(C)Cn1c(N)nc2ccc(-c3[nH]c(C(C)(C)C)nc3-c3ccc(F)cc3)nc21 [ralimetinib]
Outline: as §1

[11] = compound: CC(C)(O)CC(=O)NCCn1ccc2ncnc(Nc3ccc(Oc4cccc(C(F)(F)F)c4)c(Cl)c3)c21
Outline: as §1

[12] = compound: CC(C)C1=C2N=C(C=C(N2N=C1)NCC3=CC=CC=C3)NCCCCCCN
Outline: as §1

[13] = compound: CC(C)C[C@@H](C=O)NC(=O)[C@H](CC(C)C)NC(=O)[C@H](CC(C)C)NC(=O)OCc1ccccc1
Outline: as §1

pinometostat = compound: CC(C)N(C[C@H]1O[C@@H](n2cnc3c(N)ncnc32)[C@H](O)[C@@H]1O)[C@H]1C[C@@H](CCc2nc3cc(C(C)(C)C)ccc3[nH]2)C1 [pinometostat]
Outline: as §1

[14] = compound: CC1=C(C(CC(=O)N1)C2=CC=C(C=C2)C(F)(F)F)C(=O)NC3=C(C=C4C(=C3)C=NN4)F
Outline: as §1

[15] = compound: CC1=C(C2=C(C=C1)C(=O)C3=CC=CC=C3N2CCCN)C
Outline: as §1

Measured: log2 fold change

FAM32A (UniProt Q9Y421)
inactive: erlotinib 0.222 | [1] 0.056 | [2] -0.163 | [3] 0.007 | [4] -0.018 | [5] 0.009 | [6] -0.079 | [7] -0.011 | [8] -0.065 | [9] -0.075 | IRAK-1-4 Inhibitor I -0.142 | ibrutinib 0.04 | [10] 0.077 | ralimetinib 0.062 | [11] 0.057 | [12] 0.087 | [13] 0.144 | pinometostat -0.001 | [14] 0.08 | [15] -0.023

FARSA (UniProt Q9Y285)
inactive: erlotinib 0.021 | [1] 0.069 | [2] -0.013 | [3] -0.006 | [4] 0.058 | [5] -0.002 | [6] 0.065 | [7] 0.034 | [8] -0.031 | [9] -0.029 | IRAK-1-4 Inhibitor I -0.024 | ibrutinib -0.008 | [10] 0.016 | ralimetinib 0.061 | [11] -0.054 | [12] -0.096 | [13] 0.01 | pinometostat 0.013 | [14] -0.02 | [15] 0.007

FKBP15 (UniProt Q5T1M5)
inactive: erlotinib 0.044 | [1] 0.035 | [2] 0.012 | [3] 0.001 | [4] 0.024 | [5] -0.035 | [6] 0.016 | [7] -0.019 | [8] -0.106 | [9] -0.113 | IRAK-1-4 Inhibitor I -0.123 | ibrutinib -0.023 | [10] -0.058 | ralimetinib 0.084 | [11] -0.094 | [12] -0.113 | [13] 0.052 | pinometostat 0.06 | [14] 0.117 | [15] 0.035

FLOT2 (UniProt Q14254)
inactive: erlotinib -0.052 | [1] -0.085 | [2] -0.198 | [3] -0.029 | [4] -0.053 | [5] 0.044 | [6] -0.015 | [7] 0.063 | [8] -0.043 | [9] -0.095 | IRAK-1-4 Inhibitor I -0.152 | ibrutinib -0.118 | [10] 0.008 | ralimetinib 0.126 | [11] 0.076 | [12] -0.086 | [13] 0.073 | pinometostat 0.119 | [14] 0.027 | [15] 0.011

FBXL20 (UniProt Q96IG2)
inactive: erlotinib 0.085 | [1] 0.015 | [2] 0.123 | [3] -0.078 | [4] 0.067 | [5] 0.049 | [6] 0.123 | [7] -0.033 | [8] 0.032 | [9] 0 | IRAK-1-4 Inhibitor I 0.074 | ibrutinib -0.053 | [10] -0.017 | ralimetinib 0.068 | [11] 0.014 | [12] -0.043 | [13] 0.067 | pinometostat 0.016 | [14] -0.044 | [15] 0.047

FGF13 isoform 3 (UniProt Q92913)
inactive: erlotinib 0.137 | [1] 0 | [2] -0.097 | [3] -0.017 | [4] 0.143 | [5] 0.03 | [6] -0.001 | [7] 0.022 | [8] -0.011 | [9] -0.037 | IRAK-1-4 Inhibitor I -0.081 | ibrutinib 0.076 | [10] 0.048 | ralimetinib -0.088 | [11] -0.069 | [12] 0.145 | [13] 0.111 | pinometostat 0.011 | [14] 0.067 | [15] 0.12

FAM8A1 (UniProt Q9UBU6)
inactive: erlotinib -0.024 | [1] -0.036 | [2] 0.012 | [3] -0.065 | [4] 0.031 | [5] -0.04 | [6] 0.01 | [7] 0.015 | [8] -0.083 | [9] 0.018 | IRAK-1-4 Inhibitor I 0.024 | ibrutinib 0.009 | [10] 0.001 | ralimetinib 0.051 | [11] -0.038 | [12] -0.133 | [13] -0.09 | pinometostat -0.096 | [14] -0.014 | [15] -0.138

FN3K (UniProt Q9H479)
inactive: erlotinib 0.028 | [1] 0.003 | [2] 0.021 | [3] 0.005 | [4] 0.033 | [5] -0.007 | [6] -0.001 | [7] -0.043 | [8] -0.02 | [9] 0.045 | IRAK-1-4 Inhibitor I 0.026 | ibrutinib 0.046 | [10] -0.019 | ralimetinib 0.011 | [11] 0 | [12] 0.03 | [13] -0.056 | pinometostat -0.023 | [14] 0.002 | [15] -0.008

FCHO2 (UniProt Q0JRZ9)
inactive: erlotinib -0.006 | [1] 0.125 | [2] -0.08 | [3] 0.082 | [4] 0.012 | [5] -0.087 | [6] -0.056 | [7] -0.025 | [8] 0.069 | [9] -0.018 | IRAK-1-4 Inhibitor I -0.011 | ibrutinib -0.064 | [10] -0.236 | ralimetinib -0.034 | [11] -0.022 | [12] -0.153 | [13] 0.073 | pinometostat -0.065 | [14] -0.313 | [15] 0.032

FKBP8 isoform 2 (UniProt Q14318)
inactive: erlotinib 0.02 | [1] 0.037 | [2] -0.238 | [3] 0.017 | [4] 0 | [5] -0.092 | [6] 0.038 | [7] 0.061 | [8] -0.096 | [9] -0.133 | IRAK-1-4 Inhibitor I -0.15 | ibrutinib -0.004 | [10] 0.045 | ralimetinib 0.239 | [11] 0 | [12] -0.129 | [13] 0.029 | pinometostat 0.251 | [14] 0.104 | [15] 0.034

FAM3C (UniProt Q92520)
inactive: erlotinib 0.023 | [1] -0.009 | [2] -0.008 | [3] 0.002 | [4] -0.028 | [5] 0.031 | [6] -0.06 | [7] 0.012 | [8] 0.061 | [9] 0.032 | IRAK-1-4 Inhibitor I 0.01 | ibrutinib 0.004 | [10] -0.003 | ralimetinib -0.059 | [11] 0.015 | [12] -0.027 | [13] -0.013 | pinometostat -0.022 | [14] -0.024 | [15] -0.047

Reprinted from the results shown (2 entries):
FN3K (UniProt Q9H479)
inactive: erlotinib 0.028 | [1] 0.003 | [2] 0.021 | [3] 0.005 | [4] 0.033 | [5] -0.007 | [6] -0.001 | [7] -0.043 | [8] -0.02 | [9] 0.045 | IRAK-1-4 Inhibitor I 0.026 | ibrutinib 0.046 | [10] -0.019 | ralimetinib 0.011 | [11] 0 | [12] 0.03 | [13] -0.056 | pinometostat -0.023 | [14] 0.002 | [15] -0.008

FCHO2 (UniProt Q0JRZ9)
inactive: erlotinib -0.006 | [1] 0.125 | [2] -0.08 | [3] 0.082 | [4] 0.012 | [5] -0.087 | [6] -0.056 | [7] -0.025 | [8] 0.069 | [9] -0.018 | IRAK-1-4 Inhibitor I -0.011 | ibrutinib -0.064 | [10] -0.236 | ralimetinib -0.034 | [11] -0.022 | [12] -0.153 | [13] 0.073 | pinometostat -0.065 | [14] -0.313 | [15] 0.032

Next results:

FGFR1OP (UniProt O95684)
inactive: erlotinib 0.002 | [1] 0.017 | [2] 0.003 | [3] 0.056 | [4] 0.016 | [5] 0.061 | [6] -0.018 | [7] -0.039 | [8] -0.01 | [9] -0.067 | IRAK-1-4 Inhibitor I 0.017 | ibrutinib 0.012 | [10] 0.028 | ralimetinib -0.042 | [11] -0.009 | [12] -0.048 | [13] 0.129 | pinometostat -0.048 | [14] -0.014 | [15] -0.081

FAM49B (UniProt Q9NUQ9)
inactive: erlotinib -0.033 | [1] 0.026 | [2] 0.021 | [3] 0.056 | [4] 0.011 | [5] 0.035 | [6] 0.008 | [7] 0.009 | [8] 0.012 | [9] 0.024 | IRAK-1-4 Inhibitor I 0.036 | ibrutinib -0.012 | [10] -0.022 | ralimetinib -0.043 | [11] -0.051 | [12] 0.004 | [13] -0.019 | pinometostat -0.045 | [14] -0.001 | [15] 0.032

FKBP1A (UniProt P62942)
inactive: erlotinib -0.275 | [1] 0.122 | [2] -0.003 | [3] 0.127 | [4] 0.238 | [5] -0.004 | [6] -0.009 | [7] 0.039 | [8] -0.03 | [9] -0.014 | IRAK-1-4 Inhibitor I 0.022 | ibrutinib 0.094 | [10] -0.053 | ralimetinib -0.01 | [11] 0.006 | [12] 0.108 | [13] 0.033 | pinometostat 0.024 | [14] -0.007 | [15] 0.211

FBXL18 isoform 4 (UniProt Q96ME1)
inactive: erlotinib -0.035 | [1] 0.03 | [2] 0.053 | [3] 0.026 | [4] 0.014 | [5] 0.003 | [6] -0.01 | [7] 0.033 | [8] -0.069 | [9] 0.013 | IRAK-1-4 Inhibitor I 0.055 | ibrutinib -0.061 | [10] -0.004 | ralimetinib -0.038 | [11] -0.065 | [12] -0.039 | [13] 0 | pinometostat 0.029 | [14] 0.037 | [15] 0.045

FDX1 (UniProt P10109)
inactive: erlotinib 0.178 | [1] -0.073 | [2] -0.009 | [3] -0.076 | [4] 0.005 | [5] 0.081 | [6] 0.035 | [7] -0.086 | [8] 0.029 | [9] 0.005 | IRAK-1-4 Inhibitor I 0.035 | ibrutinib 0.021 | [10] 0.027 | ralimetinib -0.046 | [11] 0.02 | [12] 0.045 | [13] 0.017 | pinometostat -0.061 | [14] 0.041 | [15] -0.064
